# No constants are given. Whether binding was seen depends on the method and setting. In cells and extracts the contact can be indirect.
# B1: ATP5A, P25705 44-553 (protein)
# chain: QKTGTAEMSSILEERILGADTSVDLEETGRVLSIGDGIARVHGLRNVQAEEMVEFSSGLKGMSLNLEPDNVGVVVFGNDKLIKEGDIVKRTGAIVDVPVGEELLGRVVDALGNAIDGKGPIGSKTRRRVGLKAPGIIPRISVREPMQTGIKAVDSLVPIGRGQRELIIGDRQTGKTSIAIDTIINQKRFNDGSDEKKKLYCIYVAIGQKRSTVAQLVKRLTDADAMKYTIVVSATASDAAPLQYLAPYSGCSMGEYFRDNGKHALIIYDDLSKQAVAYRQMSLLLRRPPGREAYPGDVFYLHSRLLERAAKMNDAFGGGSLTALPVIETQAGDVSAYIPTNVISITDGQIFLETELFYKGIRPAINVGLSVSRVGSAAQTRAMKQVAGTMKLELAQYREVAAFAQFGSDLDAATQQLLSRGVRLTELLKQGQYSPMAIEEQVAVIYAGVRGYLDKLEPSKITKFENAFLSHVVSQHQALLGTIRADGKISEQSDAKLKEIVTNFLAGFEA
# Molecular target: PHB2–DK (prohibitin 2 fused to the fluorescent protein Dreiklang, expressed from the native genomic locus) (human), Q99623
# Experiment: co-IP; GFP-Trap agarose beads (nanobody against DK) mixed with 800 µg extract of mitochondria isolated from PHB1-DK or PHB2-DK knock-in U2OS cells; 20 mM Tris-HCl pH 7.5, 50 mM NaCl, 0.5 mM EDTA, 10% glycerol, 0.3% digitonin; 4 °C, 1 h; ten washes; western blot
# Conditions: remark: other sources report otherwise
binder,measurement,value
B1,binding,no binding
